In PubChem BioAssay AID493014 (National Center for Advancing Translational Sciences (NCATS), 2011):
Out of some 340,000 compounds screened, about 170 (0.05%) were called active. This list was built around the results that the source calls inconclusive (neither active nor inactive); the mix of calls is not that of the screen. Calls follow the shape of the dose curve; as a rule, active = well fitted inhibition curve with a large enough effect in the signal ratio, with a control signal flat (not every such curve was filed as active); inconclusive = small, poorly fitted or top-dose-only effect, or effect the other way, or a change in a side signal; inactive = flat fitted curve, though single readings scatter; the % refers to the signal ratio. A potency beside an inconclusive call is a rough fit, not a confirmed value.

Experiment: qHTS Assay to Find Inhibitors of Chronic Active B-Cell Receptor Signaling;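 as to activity change, negative = inhibition: plate controls were basal doxycycline-induced cells for no effect and cells given 10 µM MG132 for full effect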
Details: ABC-DLBCL IkBa-CBG/CBR reporter, luminescence ratio (green luciferase fused to IkBa over red control in TMD8 lymphoma cells), 4 h; activity change, negative = inhibition: at 46.1 µM (top of the series)
Summary of the method: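 TMD8 ABC-DLBCL cells carrying doxycycline-inducible green luciferase fused to IkappaBalpha plus unfused red luciferase were exposed to compounds (up to 46 uM) for 4 hrs at 37C. Activity came from the overlap-corrected green/red luminescence ratio.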
Potency is read from the fitted curve at half-maximal effect.

| SMILES | activity change, negative = inhibition | Potency |
| --- | --- | --- |
| CSc1nc(C)c(C(=O)C[n+]2ccc(C)cc2)cc1C#N | inconclusive: 0.111% | – |
| CCOc1ccc(NC(=O)CSC2=Nc3ccccc3C3=NC(CCC(=O)NCc4cccs4)C(=O)N23)cc1 (stereo unspecified) | inactive | – |
| Cc1ccc(CNC(=O)CCS(=O)(=O)c2ccc3c(c2)CC(C)N3C(=O)C2CC2)cc1 (stereo unspecified) | inactive | – |
| Cc1c(/N=C(\[O-])Nc2ccc(Br)cc2)sn[n+]1C | – | inconclusive: 7.08 µM [falling, partial curve, poor fit] |
| CCOc1ccc(-n2cc(-c3ccccc3)c3c(NC4CCCCC4)ncnc32)cc1 | inconclusive: 21.4% | – |
| Nc1nc(Nc2ccccc2F)nc(NCCO)c1[N+](=O)[O-] | inconclusive: 4.02% | – |
| Cc1cc(C)cc(N(CC(=O)NCc2ccco2)S(=O)(=O)c2ccccc2)c1 | inconclusive: -0.458% | – |
| CC(=O)N(CCC(c1ccco1)C(C)C)Cc1ccc(OC(C)C)cc1 (stereo unspecified) | inconclusive: 19.3% | – |
| O=C(c1ccc(S(=O)(=O)N2CCCCC2)cc1)N1CCN(c2ccccc2F)CC1 | inconclusive: 9.16% | – |
| c1ccc(-n2c(-c3ccncc3)nnc2-c2ccco2)cc1 | inactive | – |
| O=C(CSC(=S)N1CCCCC1)Nc1ncc2c(n1)CCCC2=O | inconclusive: 5.78% | – |
| COC(=O)c1ccc(NC(=O)C2CCCN(S(=O)(=O)c3cnc[nH]3)C2)cc1 (stereo unspecified) | – | inconclusive: 25.9 µM [falling, partial curve, poor fit] |
| O=C(Cc1ccccc1)Nc1ccc(NC(=O)c2cccs2)cc1 | inactive | – |
| O=C(CCCCN1CCCCC1)c1ccc2c(c1)Cc1ccccc1-2 | – | inconclusive: 11.2 µM [falling, partial curve, poor fit] |
| CCCCNC(=O)c1[nH]c(C)c(C(C)=O)c1C | inactive | – |
| Cc1ccc(C(=O)NCc2cccnc2)o1 | inconclusive: 2.27% | – |
| COc1cccc(NC(=O)CSc2nc(=O)n(Cc3ccccn3)c3c2CCC3)c1 | inconclusive: -4.19% | – |
| CCOC(=O)c1sc(NC(=O)c2cncc(Br)c2)nc1C | – | inconclusive: 0.00731 µM [falling, full curve, poor fit] |
| O=C(CSc1ncnc2sccc12)Nc1ccccc1F | – | inconclusive: 35.5 µM [rising, single point] |
| COc1ccccc1NC(=O)CN(Cc1ccco1)C(=O)c1ccc(N2CCCC2=O)cc1 | inconclusive: 1.06% | – |
| COc1cccc(NC(=O)c2ccc3c(c2)N(C)CCS3)c1 | – | inconclusive: 22.4 µM [falling, partial curve] |

Compounds above containing an aryl methoxy group:

| SMILES | activity change, negative = inhibition | Potency |
| --- | --- | --- |
| COc1cccc(NC(=O)CSc2nc(=O)n(Cc3ccccn3)c3c2CCC3)c1 | inconclusive: -4.19% | – |
| COc1ccccc1NC(=O)CN(Cc1ccco1)C(=O)c1ccc(N2CCCC2=O)cc1 | inconclusive: 1.06% | – |
| COc1cccc(NC(=O)c2ccc3c(c2)N(C)CCS3)c1 | – | inconclusive: 22.4 µM [falling, partial curve] |

Continued:

| SMILES | activity change, negative = inhibition | Potency |
| --- | --- | --- |
| O=C(Nc1nc2c(s1)CCCC2)c1ccc(Br)o1 | inconclusive: -19.2% | – |
| O=C(Nc1nnc(SCc2ccc(F)cc2)s1)c1ccco1 | inconclusive: 7.58% | – |
| O=[N+]([O-])c1cc(CN2CCC(O)CC2)ccc1Cl | inactive | – |
| O=C1C(Cc2ccccc2)Nc2ncnc(N3CCc4ccccc4C3)c2N1Cc1ccc(Br)cc1 (stereo unspecified) | – | inconclusive: 18.4 µM [falling, partial curve, poor fit] |
| O=C(Nc1ccc(Cl)cc1)Nc1nnc(CSCc2ccccc2Cl)s1 | inconclusive: 14.2% | – |
| C/C=C/c1ccc(OCC(=O)OCC)c(OC)c1 | inconclusive: 3.45% | – |
| COCC(=O)Nc1ccc2c(c1)OCC(=O)N2Cc1ccccc1F | inconclusive: -97.5% | – |
| Cc1cc(C)c(S(=O)(=O)N2CCN(C(=O)CN3C(=O)NC4(CCCC4)C3=O)CC2)c(C)c1 | inactive | – |
| Cc1ccc(NC(=O)Nc2ccc(Cl)c(Cl)c2)nc1 | inconclusive: 12.7% | – |
| Cc1cccc(-n2c(C)nc3c(cnn3-c3ccc(F)cc3)c2=O)c1 | inactive | – |
| CC1CCN(S(=O)(=O)N2CCC(C(=O)NCc3ccc4c(c3)OCO4)CC2)CC1 | inconclusive: -0.0272% | – |
| Cc1c(C(=O)N(C)CCOc2ccccc2)oc2c(Cl)cccc12 | inconclusive: 1.52% | – |
| NS(=O)(=O)c1ccc(CCNS(=O)(=O)c2ccc(Cl)nc2)cc1 | inconclusive: 5.95% | – |
| CCNc1c(NS(=O)(=O)c2ccc(OC)c(Cl)c2)c(=O)oc2ccccc12 | inconclusive: -11.9% | – |
| O=C(Nc1ccccn1)c1ccc([N+](=O)[O-])cc1Cl | inconclusive: 20.2% | – |
| Cc1cccc(C)c1OCC(=O)Nc1cccc(NC(=O)c2ccco2)c1 | – | inconclusive: 5.8 µM [falling, partial curve, poor fit] |
| Oc1c(Br)cc(Br)cc1/C=N/NC(=S)N[C@H]1CC2C=CC1C2 (stereo partly specified) | inactive | – |
| COc1cc(/C=C/C(=O)OCC(=O)N2CCN(S(=O)(=O)c3ccc(C)cc3C)CC2)cc(Cl)c1OC | inconclusive: -1.8% | – |
| O=C(NC(=S)Nc1ccc2oc(=O)ccc2c1)c1ccco1 | inconclusive: 0.103% | – |
| COc1cc(CN2CCNC(=O)C2CC(=O)NC2CCCCC2)cc(OC)c1 (stereo unspecified) | inconclusive: -7.32% | – |
| Cc1cc(N2CC(C)OC(C)C2)n2cc(-c3ccccc3)nc2n1 (stereo unspecified) | inconclusive: -17.3% | – |

| SMILES | activity change, negative = inhibition | Potency |
| --- | --- | --- |
| CCOc1ccc(S(=O)(=O)N2CCN(C(=O)c3cc(-c4ccccc4)nn3-c3ccccc3)CC2)cc1 | inactive | – |
| COc1cc(OC)cc(C(=O)Nc2nc(CC(=O)NCc3ccccc3OC)cs2)c1 | inconclusive: -4.6% | – |
| COc1ccc(S(=O)(=O)N2CCN(C(=O)c3cccc(Cl)c3)CC2)cc1 | inconclusive: 16.2% | – |
| COc1ccc(N(C(=O)c2ccncc2)S(=O)(=O)c2ccc(Cl)cc2)cc1 | inconclusive: 5.99% | – |
| CCCN(CC1CC1)C(=S)Nc1ccc(C(C)=O)cc1 | inactive | – |
| O=C1CCCN2N=C(SCC(=O)Nc3ccc([N+](=O)[O-])cc3)SC2=N1 | inactive | – |
| CC(=O)N1CCN(c2nc3cc4c(cc3nc2NS(=O)(=O)c2ccccc2)OCCO4)CC1 | – | inconclusive: 22.4 µM [falling, partial curve, poor fit] |
| CC(=O)NS(=O)(=O)c1ccc(NC(=S)NC(=O)C(C)C)cc1 | inconclusive: -11.3% | – |
| Cc1ccc(S(=O)(=O)CC(=O)Nc2ccc(S(=O)(=O)Nc3onc(C)c3C)cc2)cc1 | inactive | – |
| O=C(CNC(=O)c1cccs1)NCC(=O)OCc1ccccc1Br | inconclusive: 5.77% | – |
| Cc1sc2nc(SCC(=O)Nc3cccc(C(=O)O)c3)[nH]c(=O)c2c1C | – | inconclusive: 20.6 µM [falling, single point] |
| CN1CCN(C(=O)c2cc(-c3cccc(Cl)c3)on2)CC1 | inconclusive: -0.84% | – |
| CC1CN(C(=O)CSc2nc(-c3ccccc3)cs2)CC(C)O1 (stereo unspecified) | inconclusive: 16.5% | – |
| Cc1ccccc1NC(=S)N(CCc1c(C)[nH]c2ccc(F)cc12)Cc1ccncc1 | inconclusive: -2.8% | – |
| COc1ccccc1NS(=O)(=O)c1cccc(NC(=O)Nc2cccc(Cl)c2)c1 | inconclusive: 6.22% | – |
| COC(CN(C)C(=O)c1cn(C)c2ccc(S(=O)(=O)N(C)C3CCCCC3)cc2c1=O)OC | inconclusive: 0.0424% | – |
| COc1ccc(S(=O)(=O)Nc2cc(C(=O)NC(C)C)ccc2N2CCOCC2)cc1 | – | inconclusive: 29.1 µM [falling, single point] |
| COc1ccccc1N1CCN(CC(=O)c2c[nH]c3ccccc23)CC1 | inactive | – |
| COc1ccc(NC(=O)c2cc(=O)c3ccccc3o2)cn1 | inconclusive: 4.82% | – |
| CN(CC(=O)Nc1ccccc1Br)C(=O)c1n[nH]c2ccccc12 | inconclusive: -9.92% | – |
| CC(C)CC(=O)NS(=O)(=O)c1ccc(NS(C)(=O)=O)cc1 | inconclusive: 5.16% | – |

| SMILES | activity change, negative = inhibition | Potency |
| --- | --- | --- |
| CN(C(=O)c1ccc2c(c1)OCO2)C1(C(=O)NC2CCCC2)CCCCC1 | inconclusive: -9.2% | – |
| O=C(O)C(Cc1ccccc1)N1C(=O)c2ccccc2C1=O (stereo unspecified) | – | inconclusive: 2.31 µM [rising, partial curve, poor fit] |
| CCOC(=O)c1ccc(NC(=O)Nc2ccon2)cc1 | – | inconclusive: 22.4 µM [falling, partial curve, poor fit] |
| CN(C)CCCN1c2ccccc2Sc2ccc(Cl)cc21 | – | inconclusive: 20 µM [falling, partial curve, poor fit] |
| Nc1nc(NCCc2ccccc2)nc(NCc2ccccc2)c1[N+](=O)[O-] | inactive | – |
| COc1ccc(NC(=S)N=Nc2c(O)[nH]c3ccccc23)cc1 | – | inconclusive: 5.62 µM [falling, single point] |
| CCOc1cc(/C=C/C(=O)c2ccc3c(c2)OCCO3)ccc1OCC(=O)N(C)C | – | inconclusive: 7.08 µM [falling, partial curve] |
| CC1CC(C)CN(S(=O)(=O)c2ccc(C(=O)N(c3ccccn3)C3CCCCC3)cc2)C1 (stereo unspecified) | inconclusive: -16.6% | – |
| CCOC(=O)Cc1csc(NC(=O)C(CC(C)C)NC(=O)C2CCCCC2)n1 (stereo unspecified) | inconclusive: 7.09% | – |
| O=C(NN=C1CCCCCC1)c1cn(-c2ccccc2)nc1-c1ccccc1 | inconclusive: -5% | – |
| CC(C)CC(=O)Nc1nc2c(c(=O)[nH]1)CCCC2 | – | inconclusive: 5.17 µM [falling, partial curve] |
| CC(=O)c1cccc(NC(=O)c2ccc3c(c2)CCCC3)c1 | – | inconclusive: 20 µM [falling, single point] |
| Nc1nc(-c2cccs2)c(NC(=O)c2ccccc2)s1 | inconclusive: -28% | – |
| COc1cccc(N2CCN(C(=S)Nc3cccc(C)c3)CC2)c1 | inactive | – |
| CCn1c(O)c(C2=NCCCC2)c2ccccc21 | inconclusive: 3.88% | – |
| O=C(CN1C(=O)NC2(CCCCCC2)C1=O)c1ccc(Cl)cc1 | inconclusive: 7.59% | – |
| N#Cc1ccccc1NC(=O)CN1CCN(Cc2ccccc2)CC1 | inconclusive: -9.18% | – |
| C(/CCc1ccccc1)=N\Nc1nc2ccccc2[nH]1 | – | inconclusive: 31.6 µM [falling, single point] |
